Experimental data published in patent US8361965B2, “Recombinant chimeric protein of neutrophil inhibitory factor and hirugen, and pharmaceutical composition thereof” (Lunan Pharmaceutical Group Corporation, priority 2008, dated 2013).

Tested on: human peripheral blood leukocyte
Assay: inhibition of H2O2 release from human peripheral blood leukocyte
Type: cell-based
Conditions: OD 610 nm, control 0.672
Description: 10 ml venous blood was taken from healthy people, and heparin sodium was added for anticoagulation. 10 ml HAS buffer (comprising RPMI 1640+10 mM HEPES+1.2 mM CaCl2+1.0 mM MgCl2+1% HAS, pH 7.4) was added into the blood and mixed. Leukocyte separation solution (Sangon) was charged into a sterile centrifuge tube, and whole blood mixture of the same volume was added slowly, and then centrifuged at 2000 rpm for 15 min. Leukocyte solution was taken from the interface and appropriate 1640 culture medium was added, centrifuged for 10 min, and washed twice. The supernatant was discarded, and appropriate HAS Buffer was added for resuspending the precipitate so as to prepare leukocyte suspension. The cell density was counted and adjusted to 4×10^7/ml. The product was separated at 37° C. and used within an hour.
Coating the 24-well plate with Hank's solution comprising 50% fetal bovine serum and culturing at 37 for 60 min; washing the plate with 0.15 M NaCl twice; diluting the cells to 6.0×10^6/ml with the buffer solution for release assay, adding cells, and culturing at 37 for 5 min; adding FMLP to the final concentration of 250 nM; adding TNHH samples at different concentrations and culturing at 37 for 60 min; pipetting the cell suspension, centrifuging at 8000×g for 3 min, and collecting the supernatant. Adding the supernatant into multiple-wells of a 96-well ELISA plate, adding 1 N NaOH (25 μl) for stopping the reaction, and determining the OD at 610 nm wavelength. Calculating the IC50 value of TNHH for inhibiting H2O2 release, and using the standard H2O2 solution as a control.

B1: TNHH: recombinant chimeric protein of neutrophil inhibitory factor and hirugen, Met-NIF-GGGGG-FPRPGSGG-Hirugen (SEQ ID NO: 3), expressed in E. coli (protein)
chain: MNEHNLRCPQNGTEMPGFNDSIRLQFLAMHNGYRSKLALGHISITEESESDDDDDFGFLPDFAPRASKMRYLEYDCEAEKSAYMSARNCSDSSSPPEGYDENKYIFENSNNISEAALKAMISWAKEAFNLNKTKEGEGVLYRSNHDISNFANLAWDAREKFGCAVVNCPLGEIDDETNHDGETYATTIHVVCHYPKINKTEGQPIYKVGTPCDDCSEYTKKADNTTSADPVCIPDDGVCFIGSKADYDSKEFYRFRELGGGGGFPRPGSGGNGDFEEIPEEYL
modifications: N-terminal Met
- Average OD value (TNHH 0.781 μg/ml): 0.681
- Average OD value (TNHH 1.562 μg/ml): 0.628
- Average OD value (TNHH 3.125 μg/ml): 0.519
- Average OD value (TNHH 6.25 μg/ml): 0.402
- Average OD value (TNHH 12.5 μg/ml): 0.317
- Average OD value (TNHH 25 μg/ml): 0.259
- Average OD value (TNHH 50 μg/ml): 0.135
- Average OD value (TNHH 100 μg/ml): 0.121
